From the supplement of paper PMC10849652
This is one part of the list.

Protein sequences, listed by entry. Tags and fused reporters are not part of them. Lines headed by an entry give the natural chain unless they say otherwise; changes in a name come on top.
UniProt Q9H6P5: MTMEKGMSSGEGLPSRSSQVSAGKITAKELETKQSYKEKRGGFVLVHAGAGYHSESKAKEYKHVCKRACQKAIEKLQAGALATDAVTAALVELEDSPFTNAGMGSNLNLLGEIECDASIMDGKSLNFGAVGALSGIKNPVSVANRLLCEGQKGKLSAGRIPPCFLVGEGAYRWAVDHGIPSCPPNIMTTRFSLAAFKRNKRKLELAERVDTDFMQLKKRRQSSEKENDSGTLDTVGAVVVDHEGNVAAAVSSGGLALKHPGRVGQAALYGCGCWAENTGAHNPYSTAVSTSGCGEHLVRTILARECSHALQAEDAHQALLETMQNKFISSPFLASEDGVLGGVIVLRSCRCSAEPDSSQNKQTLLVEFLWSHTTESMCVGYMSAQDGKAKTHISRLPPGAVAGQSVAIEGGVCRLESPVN
UniProt P20061: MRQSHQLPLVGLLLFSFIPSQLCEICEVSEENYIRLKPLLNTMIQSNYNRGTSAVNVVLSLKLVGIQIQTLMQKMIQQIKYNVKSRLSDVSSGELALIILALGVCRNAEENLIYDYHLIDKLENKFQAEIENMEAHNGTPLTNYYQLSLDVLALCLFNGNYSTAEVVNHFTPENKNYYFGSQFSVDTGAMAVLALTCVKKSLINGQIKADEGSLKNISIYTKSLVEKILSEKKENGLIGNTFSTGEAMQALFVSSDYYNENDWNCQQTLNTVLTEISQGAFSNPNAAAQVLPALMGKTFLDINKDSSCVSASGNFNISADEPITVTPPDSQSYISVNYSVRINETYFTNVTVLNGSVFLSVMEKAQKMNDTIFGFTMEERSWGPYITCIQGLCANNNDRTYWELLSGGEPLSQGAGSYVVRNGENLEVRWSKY
UniProt Q6N022: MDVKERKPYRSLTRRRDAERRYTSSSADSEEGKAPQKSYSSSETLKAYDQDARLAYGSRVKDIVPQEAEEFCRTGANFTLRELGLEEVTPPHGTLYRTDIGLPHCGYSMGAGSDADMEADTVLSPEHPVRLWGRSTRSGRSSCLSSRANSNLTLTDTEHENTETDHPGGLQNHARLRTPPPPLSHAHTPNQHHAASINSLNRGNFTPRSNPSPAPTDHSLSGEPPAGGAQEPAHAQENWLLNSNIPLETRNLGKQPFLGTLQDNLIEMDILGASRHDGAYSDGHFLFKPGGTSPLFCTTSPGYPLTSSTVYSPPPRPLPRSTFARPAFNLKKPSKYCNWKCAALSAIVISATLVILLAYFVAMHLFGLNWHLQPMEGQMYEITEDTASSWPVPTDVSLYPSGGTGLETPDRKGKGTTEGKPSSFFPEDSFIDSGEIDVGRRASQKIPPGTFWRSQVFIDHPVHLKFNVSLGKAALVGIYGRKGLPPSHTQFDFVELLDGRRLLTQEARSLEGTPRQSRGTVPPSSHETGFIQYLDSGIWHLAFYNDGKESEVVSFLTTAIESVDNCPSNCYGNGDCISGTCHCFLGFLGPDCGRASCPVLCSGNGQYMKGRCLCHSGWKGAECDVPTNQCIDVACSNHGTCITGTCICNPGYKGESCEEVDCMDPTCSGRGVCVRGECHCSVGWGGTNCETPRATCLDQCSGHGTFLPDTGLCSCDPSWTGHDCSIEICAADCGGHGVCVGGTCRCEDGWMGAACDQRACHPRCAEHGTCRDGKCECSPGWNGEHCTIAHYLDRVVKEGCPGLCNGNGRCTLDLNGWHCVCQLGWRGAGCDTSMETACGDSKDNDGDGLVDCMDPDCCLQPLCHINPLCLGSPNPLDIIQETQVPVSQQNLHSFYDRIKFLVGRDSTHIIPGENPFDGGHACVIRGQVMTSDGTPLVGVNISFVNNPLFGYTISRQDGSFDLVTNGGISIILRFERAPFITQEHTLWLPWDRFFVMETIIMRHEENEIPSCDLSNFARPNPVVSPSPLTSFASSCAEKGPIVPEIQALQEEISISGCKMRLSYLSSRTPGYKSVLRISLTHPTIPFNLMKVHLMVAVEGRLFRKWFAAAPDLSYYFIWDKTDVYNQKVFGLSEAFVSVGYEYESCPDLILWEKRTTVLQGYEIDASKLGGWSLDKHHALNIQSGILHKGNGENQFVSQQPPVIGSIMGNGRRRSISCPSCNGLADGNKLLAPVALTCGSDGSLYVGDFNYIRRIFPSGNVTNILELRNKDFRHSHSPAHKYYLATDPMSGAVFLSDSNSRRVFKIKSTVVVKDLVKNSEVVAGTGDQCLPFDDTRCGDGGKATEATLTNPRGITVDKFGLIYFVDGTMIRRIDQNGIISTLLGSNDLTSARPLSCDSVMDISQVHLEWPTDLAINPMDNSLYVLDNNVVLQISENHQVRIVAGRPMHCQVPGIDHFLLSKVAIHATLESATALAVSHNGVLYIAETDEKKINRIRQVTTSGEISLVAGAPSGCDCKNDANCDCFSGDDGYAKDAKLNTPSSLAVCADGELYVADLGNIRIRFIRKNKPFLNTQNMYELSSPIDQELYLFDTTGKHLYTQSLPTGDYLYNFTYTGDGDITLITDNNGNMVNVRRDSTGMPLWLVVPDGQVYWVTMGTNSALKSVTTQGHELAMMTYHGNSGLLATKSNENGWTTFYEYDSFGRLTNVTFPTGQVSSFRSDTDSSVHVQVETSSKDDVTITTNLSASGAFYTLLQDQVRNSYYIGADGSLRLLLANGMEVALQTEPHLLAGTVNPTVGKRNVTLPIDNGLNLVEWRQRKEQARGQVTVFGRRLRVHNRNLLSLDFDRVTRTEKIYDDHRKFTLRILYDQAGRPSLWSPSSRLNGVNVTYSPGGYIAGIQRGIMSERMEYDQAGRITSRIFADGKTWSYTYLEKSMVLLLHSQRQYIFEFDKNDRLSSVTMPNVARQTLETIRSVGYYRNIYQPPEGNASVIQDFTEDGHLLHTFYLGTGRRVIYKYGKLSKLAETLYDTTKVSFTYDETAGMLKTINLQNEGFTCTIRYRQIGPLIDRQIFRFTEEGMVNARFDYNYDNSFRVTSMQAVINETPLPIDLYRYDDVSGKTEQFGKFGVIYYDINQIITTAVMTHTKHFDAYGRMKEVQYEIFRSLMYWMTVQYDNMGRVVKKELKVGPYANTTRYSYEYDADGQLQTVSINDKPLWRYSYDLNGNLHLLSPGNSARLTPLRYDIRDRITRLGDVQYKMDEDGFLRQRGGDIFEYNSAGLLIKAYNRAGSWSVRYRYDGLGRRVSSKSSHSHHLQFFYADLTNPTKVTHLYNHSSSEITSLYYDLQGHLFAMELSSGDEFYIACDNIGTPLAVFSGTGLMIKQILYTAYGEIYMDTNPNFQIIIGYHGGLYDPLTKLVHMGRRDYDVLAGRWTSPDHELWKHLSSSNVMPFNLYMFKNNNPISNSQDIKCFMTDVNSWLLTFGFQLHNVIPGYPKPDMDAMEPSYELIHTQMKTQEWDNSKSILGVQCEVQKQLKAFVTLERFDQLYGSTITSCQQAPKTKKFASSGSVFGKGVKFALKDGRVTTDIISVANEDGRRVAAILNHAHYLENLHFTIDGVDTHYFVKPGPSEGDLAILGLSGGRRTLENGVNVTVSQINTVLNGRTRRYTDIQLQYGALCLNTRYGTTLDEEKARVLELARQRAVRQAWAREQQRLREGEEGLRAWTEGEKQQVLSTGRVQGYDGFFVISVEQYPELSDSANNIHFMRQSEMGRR
UniProt O14907: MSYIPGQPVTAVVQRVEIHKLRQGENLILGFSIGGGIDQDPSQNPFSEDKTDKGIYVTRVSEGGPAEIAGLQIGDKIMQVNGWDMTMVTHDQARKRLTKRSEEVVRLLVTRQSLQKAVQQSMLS
UniProt P19484: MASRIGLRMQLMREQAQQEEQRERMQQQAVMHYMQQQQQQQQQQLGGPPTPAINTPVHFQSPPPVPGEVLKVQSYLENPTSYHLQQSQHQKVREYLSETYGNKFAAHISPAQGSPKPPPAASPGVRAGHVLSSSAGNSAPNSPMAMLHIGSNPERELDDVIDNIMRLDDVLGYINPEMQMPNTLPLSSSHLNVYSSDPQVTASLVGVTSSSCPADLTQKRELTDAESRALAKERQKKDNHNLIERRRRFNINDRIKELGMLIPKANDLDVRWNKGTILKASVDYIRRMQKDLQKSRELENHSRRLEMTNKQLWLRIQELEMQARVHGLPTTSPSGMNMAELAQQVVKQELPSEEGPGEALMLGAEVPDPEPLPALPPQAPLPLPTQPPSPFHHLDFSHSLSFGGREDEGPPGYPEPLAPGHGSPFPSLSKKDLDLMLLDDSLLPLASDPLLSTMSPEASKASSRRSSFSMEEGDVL
UniProt O43435: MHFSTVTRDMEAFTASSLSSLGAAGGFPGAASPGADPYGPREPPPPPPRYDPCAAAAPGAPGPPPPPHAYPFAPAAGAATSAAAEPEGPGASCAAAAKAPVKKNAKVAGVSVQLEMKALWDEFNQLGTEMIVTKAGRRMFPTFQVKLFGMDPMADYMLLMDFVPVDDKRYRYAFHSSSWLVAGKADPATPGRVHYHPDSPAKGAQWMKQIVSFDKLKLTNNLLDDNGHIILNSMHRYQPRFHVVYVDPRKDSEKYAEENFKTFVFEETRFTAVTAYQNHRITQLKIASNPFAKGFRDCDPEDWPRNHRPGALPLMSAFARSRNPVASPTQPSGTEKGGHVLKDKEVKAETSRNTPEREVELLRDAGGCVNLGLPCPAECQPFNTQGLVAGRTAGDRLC
UniProt Q9NVR7: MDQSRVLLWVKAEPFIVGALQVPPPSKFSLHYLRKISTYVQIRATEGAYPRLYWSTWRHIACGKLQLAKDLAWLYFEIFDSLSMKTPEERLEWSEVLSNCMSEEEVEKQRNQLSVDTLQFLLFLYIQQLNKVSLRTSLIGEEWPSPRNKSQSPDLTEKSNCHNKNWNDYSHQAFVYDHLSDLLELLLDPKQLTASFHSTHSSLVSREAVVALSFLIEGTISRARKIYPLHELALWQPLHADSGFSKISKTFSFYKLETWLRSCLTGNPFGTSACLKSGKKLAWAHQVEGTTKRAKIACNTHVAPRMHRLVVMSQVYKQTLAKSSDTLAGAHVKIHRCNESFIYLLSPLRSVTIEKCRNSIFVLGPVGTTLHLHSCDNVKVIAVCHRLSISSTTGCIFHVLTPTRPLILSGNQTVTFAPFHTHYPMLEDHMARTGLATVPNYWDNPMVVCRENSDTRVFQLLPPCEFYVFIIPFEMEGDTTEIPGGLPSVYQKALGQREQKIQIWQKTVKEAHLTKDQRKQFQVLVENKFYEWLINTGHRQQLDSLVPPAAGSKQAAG
UniProt Q5QJ74: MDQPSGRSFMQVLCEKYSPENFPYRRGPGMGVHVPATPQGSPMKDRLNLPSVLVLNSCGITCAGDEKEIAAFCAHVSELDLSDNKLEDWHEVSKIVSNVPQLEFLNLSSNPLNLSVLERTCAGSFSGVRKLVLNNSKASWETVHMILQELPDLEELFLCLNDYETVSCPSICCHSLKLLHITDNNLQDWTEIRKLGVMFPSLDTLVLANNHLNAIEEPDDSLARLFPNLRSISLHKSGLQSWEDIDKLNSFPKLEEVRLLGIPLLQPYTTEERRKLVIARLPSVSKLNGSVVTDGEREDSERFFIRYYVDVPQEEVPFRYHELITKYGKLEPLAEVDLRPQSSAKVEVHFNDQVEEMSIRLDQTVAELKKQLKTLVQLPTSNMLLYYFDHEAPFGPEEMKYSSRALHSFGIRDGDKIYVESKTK
UniProt P54274: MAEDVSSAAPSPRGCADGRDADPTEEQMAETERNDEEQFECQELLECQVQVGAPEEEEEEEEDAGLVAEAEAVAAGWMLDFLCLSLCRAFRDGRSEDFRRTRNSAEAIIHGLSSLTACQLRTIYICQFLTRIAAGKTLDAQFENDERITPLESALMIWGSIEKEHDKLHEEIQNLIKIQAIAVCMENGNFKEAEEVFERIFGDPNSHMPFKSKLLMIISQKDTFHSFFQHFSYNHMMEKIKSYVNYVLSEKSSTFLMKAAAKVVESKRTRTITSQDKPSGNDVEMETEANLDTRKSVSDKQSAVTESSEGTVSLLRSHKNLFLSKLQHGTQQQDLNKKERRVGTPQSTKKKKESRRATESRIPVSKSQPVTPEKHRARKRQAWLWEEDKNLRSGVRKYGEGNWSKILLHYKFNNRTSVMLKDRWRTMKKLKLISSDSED
UniProt Q15562, whole entry, looked up: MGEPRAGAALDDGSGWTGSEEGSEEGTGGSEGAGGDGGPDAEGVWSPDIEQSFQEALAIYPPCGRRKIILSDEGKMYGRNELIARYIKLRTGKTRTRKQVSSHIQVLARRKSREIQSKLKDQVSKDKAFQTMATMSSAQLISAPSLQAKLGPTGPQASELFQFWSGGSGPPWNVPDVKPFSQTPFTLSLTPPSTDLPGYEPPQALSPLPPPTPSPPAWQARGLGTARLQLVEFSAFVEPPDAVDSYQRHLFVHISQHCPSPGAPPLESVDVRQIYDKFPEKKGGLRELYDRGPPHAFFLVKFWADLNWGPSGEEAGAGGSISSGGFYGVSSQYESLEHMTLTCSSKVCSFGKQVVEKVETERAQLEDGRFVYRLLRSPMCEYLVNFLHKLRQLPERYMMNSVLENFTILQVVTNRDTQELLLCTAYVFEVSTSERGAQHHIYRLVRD

What was measured:
Assay in all cases: log2 fold change, soluble protein after heating vs DMSO (PISA); higher = thermal stabilisation; K562 lysate, 10 uM; active = over 0.2 and 3.5 SD of the protein, either way, in both replicates (recomputed)
lapatinib = compound: CS(=O)(=O)CCNCc1ccc(-c2ccc3ncnc(Nc4ccc(OCc5cccc(F)c5)c(Cl)c4)c3c2)o1 [lapatinib]
Method in brief: (§1)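 K562 pellets were dounce-homogenised in PBS pH 7.4 containing 1 mM MgCl2, and the crude extract, at 1 mg/mL protein, was exposed to 10 μM compound for 30 min. Aliquots were heated for 3 min across 48°C-58°C, pooled, brought to 0.5% NP-40 at 4°C and spun at 21,000xg for 90 min, with the supernatant taken as soluble protein. TMTpro 16plex LC-MS/MS with equalised channel sums quantified that protein. Values are log-two fold changes in thermal stability relative to solvent controls, taken from duplicates.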

pictilisib = compound: CS(=O)(=O)N1CCN(Cc2cc3nc(-c4cccc5[nH]ncc45)nc(N4CCOCC4)c3s2)CC1 [pictilisib]
Method in brief: as §1

crizotinib = compound: C[C@@H](Oc1cc(-c2cnn(C3CCNCC3)c2)cnc1N)c1c(Cl)ccc(F)c1Cl [crizotinib]
Method in brief: as §1

[1] = compound: C[C@H](C1=CC=C(C=C1)C(=O)NC2=C3C=CNC3=NC=C2)N
Method in brief: as §1

gandotinib = compound: Cc1cc(Nc2cc(CN3CCOCC3)c3nc(C)c(Cc4ccc(Cl)cc4F)n3n2)n[nH]1 [gandotinib]
Method in brief: as §1

doramapimod = compound: Cc1ccc(-n2nc(C(C)(C)C)cc2NC(=O)Nc2ccc(OCCN3CCOCC3)c3ccccc23)cc1 [doramapimod]
Method in brief: as §1

bafetinib = compound: Cc1ccc(NC(=O)c2ccc(CN3CC[C@H](N(C)C)C3)c(C(F)(F)F)c2)cc1Nc1nccc(-c2cncnc2)n1 [bafetinib]
Method in brief: as §1

[2] = compound: Cc1cccc(CC(=O)N2CCc3c2ccc(-c2cn(C)c4ncnc(N)c24)c3F)n1
Method in brief: as §1

quisinostat = compound: Cn1cc(CNCC2CCN(c3ncc(C(=O)NO)cn3)CC2)c2ccccc21 [quisinostat]
Method in brief: as §1

[3] = compound: NC(=O)Nc1cc(-c2cccc(F)c2)sc1C(=O)N[C@H]1CCCNC1
Method in brief: as §1

[4] = compound: NC(=O)c1cnc(N[C@@H]2CCCC[C@@H]2N)nc1Nc1cccc(-n2nccn2)c1
Method in brief: as §1

[5] = compound: NC1(c2ccc(-c3nc4ccn5c(=O)[nH]nc5c4cc3-c3ccccc3)cc2)CCC1
Method in brief: as §1

duvelisib = compound: C[C@H](Nc1ncnc2nc[nH]c12)c1cc2cccc(Cl)c2c(=O)n1-c1ccccc1 [duvelisib]
Method in brief: as §1

tozasertib = compound: Cc1cc(Nc2cc(N3CCN(C)CC3)nc(Sc3ccc(NC(=O)C4CC4)cc3)n2)n[nH]1 [tozasertib]
Method in brief: as §1

dasatinib = compound: Cc1nc(Nc2ncc(C(=O)Nc3c(C)cccc3Cl)s2)cc(N2CCN(CCO)CC2)n1 [dasatinib]
Method in brief: as §1

[6] = compound: Cn1cc(-c2ccc3c(c2)CCN3C(=O)Cc2cccc(C(F)(F)F)c2)c2c(N)ncnc21
Method in brief: as §1

nilotinib = compound: Cc1cn(-c2cc(NC(=O)c3ccc(C)c(Nc4nccc(-c5cccnc5)n4)c3)cc(C(F)(F)F)c2)cn1 [nilotinib]
Method in brief: as §1

[7] = compound: Cc1nc(Nc2n[nH]c3c2CN(C(=O)N[C@H](CN(C)C)c2ccccc2)C3(C)C)c2sccc2n1
Method in brief: as §1

[8] = compound: Cc1ncc(-c2ccnc(Nc3ccc(S(C)(=O)=O)cc3)n2)n1C(C)C
Method in brief: as §1

tipifarnib = compound: Cn1cncc1[C@@](N)(c1ccc(Cl)cc1)c1ccc2c(c1)c(-c1cccc(Cl)c1)cc(=O)n2C [tipifarnib]
Method in brief: as §1

Measured: log2 fold change

TCOF1 isoform 3 (UniProt Q13428)
inactive: lapatinib -0.45 | pictilisib -0.063 | crizotinib -0.068 | [1] -0.033 | gandotinib 0.085 | doramapimod -0.021 | bafetinib -0.073 | [2] -0.023 | quisinostat 0.116 | [3] 0.094 | [4] -0.121 | [5] -0.068

TBC1D12 (UniProt O60347)
inactive: lapatinib -0.312 | crizotinib 0.001 | [1] 0.058 | duvelisib -0.058 | gandotinib -0.055 | tozasertib -0.053 | doramapimod 0.001 | [2] 0.239 | dasatinib 0.001 | [6] 0.006 | quisinostat -0.092 | [3] 0.046 | [4] -0.006 | [5] -0.006

TBC1D25 (UniProt Q3MII6)
inactive: lapatinib -0.009 | crizotinib -0.097 | [1] -0.009 | duvelisib 0.049 | gandotinib -0.168 | tozasertib -0.284 | doramapimod -0.02 | [2] -0.036 | nilotinib 0.009 | [7] -0.207 | dasatinib 0.006 | [8] 0.09 | [6] 0.011 | quisinostat 0.084 | tipifarnib 0.183 | [3] 0.001 | [4] 0.102 | [5] 0.076

TASP1 (UniProt Q9H6P5)
inactive: lapatinib 0.009 | pictilisib -0.217 | crizotinib -0.086 | duvelisib 0 | tozasertib -0.002 | doramapimod 0.053 | bafetinib -0.235 | nilotinib -0.319 | [7] -0.062 | dasatinib -0.124 | [8] 0.077 | [6] -0.003 | quisinostat -0.094 | tipifarnib 0.089 | [3] 0.046 | [4] -0.053 | [5] -0.056

TCN1 (UniProt P20061)
inactive: pictilisib 0.198 | crizotinib 0.237 | [1] -0.041 | gandotinib 0.185 | tozasertib -0.064 | doramapimod -0.123 | bafetinib 0.185 | [2] 0.962 | nilotinib 0.046 | [7] 0.022 | [8] 0.058 | quisinostat 0.183 | tipifarnib -0.027 | [3] -0.007 | [5] 0.168

TET2 (UniProt Q6N021)
inactive: pictilisib -0.054 | crizotinib 0.056 | duvelisib 0.012 | tozasertib 0.083 | doramapimod -0.39 | bafetinib -0.102 | dasatinib -0.037 | [6] -0.041 | quisinostat -0.305 | [3] -0.116 | [5] -0.04

TEDC2 (UniProt Q7L2K0)
inactive: lapatinib 0.008 | crizotinib 0.05 | [1] 0.014 | gandotinib -0.087 | doramapimod -0.129 | [2] 0.05 | nilotinib -0.006 | [7] 0.038 | [8] -0.017 | quisinostat -0.103 | tipifarnib -0.112 | [3] 0.075 | [4] -0.039

TDRD15 (UniProt B5MCY1)
inactive: lapatinib 0.045 | crizotinib -0.137 | duvelisib 0.047 | tozasertib 0.025 | doramapimod 0.034 | nilotinib 0.105 | [7] -0.083 | dasatinib -0.08 | [8] -0.055 | [6] -0.04 | quisinostat -0.256 | tipifarnib 0.075 | [3] 0.008 | [4] 0.096 | [5] -0.088

TFDP2 (UniProt Q14188)
inactive: lapatinib -0.194 | pictilisib 0.138 | crizotinib -0.049 | duvelisib 0.085 | doramapimod -0.123 | bafetinib 0.1 | nilotinib 0.049 | [7] -0.019 | dasatinib 0.13 | [8] -0.056 | [6] -0.048 | quisinostat -0.129 | tipifarnib -0.157 | [3] -0.07 | [4] 0.111 | [5] -0.003

TENM4 (UniProt Q6N022)
inactive: lapatinib -0.169 | pictilisib -0.065 | crizotinib -0.07 | [1] 0.415 | gandotinib -0.028 | doramapimod -0.068 | bafetinib -0.148 | [2] -0.032 | quisinostat -0.13 | [3] 0.033 | [4] -0.081

TBXA2R (UniProt P21731)
inactive: pictilisib 0.029 | crizotinib -0.043 | [1] -0.042 | gandotinib -0.177 | doramapimod -0.024 | bafetinib 0.073 | [2] 0.115 | quisinostat -0.016 | [3] -0.053 | [5] -0.153

TAX1BP3 (UniProt O14907)
inactive: lapatinib -0.002 | pictilisib -0.126 | [1] -0.079 | duvelisib -0.06 | gandotinib -0.086 | tozasertib -0.008 | bafetinib 0.007 | [2] 0.032 | dasatinib 0.066 | [6] 0.108 | [4] 0.151 | [5] 0.039

TC2N (UniProt Q8N9U0)
inactive: [1] 0.099 | gandotinib -0.159 | tozasertib 0.173 | [2] -0.048

TAF8, A0A0A0MRR3
inactive: duvelisib -0.196 | dasatinib 0.042 | [6] 0.081

TFEB (UniProt P19484)
inactive: crizotinib -0.05 | doramapimod 0.057 | nilotinib -0.161 | [7] 0.048 | [8] -0.026 | quisinostat -0.111 | tipifarnib 0.11 | [3] 0.058

TCEA2 (UniProt Q15560)
inactive: tozasertib 0.106

TBX1 isoform 3 (UniProt O43435)
inactive: pictilisib -0.153 | [1] -0.181 | gandotinib -0.025 | tozasertib 0.052 | bafetinib -0.088 | [2] -0.012

TEAD1 (UniProt P28347)
inactive: pictilisib 0.02 | [1] 0.057 | duvelisib 0.27 | gandotinib -0.261 | tozasertib -0.077 | bafetinib 0.129 | [2] -0.023 | dasatinib -0.23 | [6] 0.242 | [5] -0.393

TBCCD1 (UniProt Q9NVR7)
inactive: [1] -0.155 | gandotinib -0.022 | [2] 0.068 | [5] -0.233

TENT2 (UniProt Q6PIY7)
inactive: duvelisib 0.045 | dasatinib 0.103 | [6] -0.035

TBCEL (UniProt Q5QJ74)
inactive: pictilisib 0.469 | [1] 0.267 | duvelisib -0.029 | gandotinib -0.14 | bafetinib 0.478 | [2] 0.404 | nilotinib -0.059 | [7] 0.177 | dasatinib 0.101 | [8] -0.087 | [6] 0.012 | tipifarnib -0.385 | [5] -0.229

9 successive records out of the list so far, for reference:
TENM4 (UniProt Q6N022)
inactive: lapatinib -0.169 | pictilisib -0.065 | crizotinib -0.07 | [1] 0.415 | gandotinib -0.028 | doramapimod -0.068 | bafetinib -0.148 | [2] -0.032 | quisinostat -0.13 | [3] 0.033 | [4] -0.081

TBXA2R (UniProt P21731)
inactive: pictilisib 0.029 | crizotinib -0.043 | [1] -0.042 | gandotinib -0.177 | doramapimod -0.024 | bafetinib 0.073 | [2] 0.115 | quisinostat -0.016 | [3] -0.053 | [5] -0.153

TAX1BP3 (UniProt O14907)
inactive: lapatinib -0.002 | pictilisib -0.126 | [1] -0.079 | duvelisib -0.06 | gandotinib -0.086 | tozasertib -0.008 | bafetinib 0.007 | [2] 0.032 | dasatinib 0.066 | [6] 0.108 | [4] 0.151 | [5] 0.039

TC2N (UniProt Q8N9U0)
inactive: [1] 0.099 | gandotinib -0.159 | tozasertib 0.173 | [2] -0.048

TAF8, A0A0A0MRR3
inactive: duvelisib -0.196 | dasatinib 0.042 | [6] 0.081

TFEB (UniProt P19484)
inactive: crizotinib -0.05 | doramapimod 0.057 | nilotinib -0.161 | [7] 0.048 | [8] -0.026 | quisinostat -0.111 | tipifarnib 0.11 | [3] 0.058

TCEA2 (UniProt Q15560)
inactive: tozasertib 0.106

TBX1 isoform 3 (UniProt O43435)
inactive: pictilisib -0.153 | [1] -0.181 | gandotinib -0.025 | tozasertib 0.052 | bafetinib -0.088 | [2] -0.012

TEAD1 (UniProt P28347)
inactive: pictilisib 0.02 | [1] 0.057 | duvelisib 0.27 | gandotinib -0.261 | tozasertib -0.077 | bafetinib 0.129 | [2] -0.023 | dasatinib -0.23 | [6] 0.242 | [5] -0.393

Later entries

TESMIN (UniProt Q9Y4I5)
inactive: crizotinib -0.047 | [1] 0.21 | duvelisib -0.19 | gandotinib -0.148 | tozasertib 0.049 | doramapimod 0.011 | [2] 0.138 | dasatinib -0.269 | [6] 0.121 | quisinostat -0.086 | [3] 0.026 | [5] -0.089

TEN1 (UniProt Q86WV5)
inactive: nilotinib 0.126 | [7] -0.243 | [8] 0.216 | tipifarnib -0.075

TCF3 (UniProt X6REB3)
inactive: [1] -0.081 | gandotinib 0.269 | [2] 0.105

TERF1 (UniProt P54274)
inactive: crizotinib -0.023 | tozasertib 0.099 | doramapimod -0.011 | nilotinib 0 | [7] 0.13 | [8] 0.27 | quisinostat -0.063 | tipifarnib 0.239 | [3] -0.043

TAX1BP1 isoform 2 (UniProt Q86VP1)
inactive: pictilisib -0.07 | bafetinib 0.01 | nilotinib 0.269 | [7] 0.198 | [8] 0.226 | tipifarnib -0.18 | [5] -0.097

TEAD2 isoform 4 (UniProt Q15562)
inactive: duvelisib 0.119 | dasatinib 0.038 | [6] -0.196 | [5] -0.087

TBCA (UniProt E5RHG6)
inactive: crizotinib -0.114 | doramapimod -0.021 | quisinostat 0.064 | [3] 0.032 | [5] -0.062

TCEAL8 (UniProt Q8IYN2)
inactive: crizotinib 0.031 | duvelisib -0.137 | tozasertib 0.078 | doramapimod -0.047 | dasatinib 0.061 | [6] 0.11 | quisinostat -0.106 | [3] 0.046

TEAD4 (UniProt Q15561)
inactive: pictilisib -0.011 | bafetinib -0.098 | [5] 0.237

TASOR (UniProt Q9UK61)
inactive: crizotinib -0.042 | duvelisib 0.048 | tozasertib 0.049 | doramapimod -0.032 | dasatinib 0 | [6] -0.006 | quisinostat -0.013 | [3] 0.017 | [5] -0.042

TANC2 isoform 2 (UniProt Q9HCD6)
inactive: [1] 0.057 | duvelisib -0.317 | gandotinib 0.031 | [2] 0.13 | nilotinib 0.032 | [7] -0.004 | dasatinib -0.236 | [8] -0.059 | [6] 0.011 | tipifarnib -0.1 | [5] 0.206

TARDBP (UniProt K7EN94)
inactive: tozasertib 0.257

TBCD, A0A0J9YWI5
inactive: crizotinib -0.022 | tozasertib -0.187 | doramapimod -0.093 | quisinostat 0.142 | [3] 0
